Source: PubChem BioAssay AID1347075 (National Center for Advancing Translational Sciences (NCATS), 2019)
The whole screen tested about 400,000 compounds, of which about 5,500 (1.4%) were called active. Inconclusive results, whose numbers are uncertain, are shown with a selection of clear calls. Calls come from the whole dose curve; as a rule, active = well fitted cell-killing curve with a large enough effect; inconclusive = small, poorly fitted or top-dose-only effect, or effect the other way; inactive = flat fitted curve, though single readings scatter. Potencies beside an inconclusive call are fits to weak or partial responses and may not hold up.

Assay: qHTS assay for MDR1-selective chemotherapeutics: Primary screen using the parental adenocarcinoma cell KB-3-1; note: nearly all actives have a fitted effect of over 60% in size
Details: KB-3-1 viability, CellTiter-Glo ATP luminescence, 72 h; activity change, negative = cytotoxic: at 46.1 µM (top of the series)
Outline: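 Parental KB-3-1 viability, qHTS format: 72 h compound exposure, 37 °C; CellTiter-Glo; media-only wells and DMSO plates as controls; concentration-effect fits on corrected data.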
% is set by controls: 0 for no effect and ±100 for the full control effect; potency is the fitted concentration of half-maximal effect.

| SMILES | activity change, negative = cytotoxic | Potency |
| --- | --- | --- |
| Cc1cc(C(=O)COC(=O)Cc2ccc(Br)cc2)c(C)n1C | inactive: 13.4% | – |
| O=C(Nc1ccncc1)c1cc(-c2cccc(Br)c2)nc2ccccc12 | – | active: 20.6 µM |
| O=C(Nc1ccc2oc(-c3ccccc3)nc2c1)C1CCCO1 (centres undefined) | – | inconclusive: 29.1 µM [rising, single point] |
| COc1ccc(-c2sc3ccccc3c2-c2ccc(OCCN3CCCCC3)cc2)cc1 | – | inconclusive: 20.6 µM [cytotoxic, single point] |
| CC(=O)[C@@H]1[C@@H](C(=O)c2ccccc2)[C@]2(C(=O)Nc3ccccc32)[C@H]2C=Cc3cc(F)ccc3N12 | – | inconclusive: 29.1 µM [cytotoxic, single point] |
| CCOC(=O)C1=C(CN2CCc3ccccc32)NC(=O)NC1c1cc(C)ccc1C (centres undefined) | – | inconclusive: 35.5 µM [cytotoxic, single point] |
| O=C(/C=C/Sc1ncn[nH]1)c1ccc(Cl)cc1 | – | inconclusive: 29.1 µM [cytotoxic, single point] |
| COc1cc(NC(=O)c2ccc(Br)cc2)ccc1NC(=O)c1cc2ccccc2o1 | inconclusive: -15.2% | – |
| COc1cccc(CNC(=O)COC(=O)c2nc(Cl)c(Cl)c(Cl)c2Cl)c1 | – | inconclusive: 20.6 µM [cytotoxic, partial curve] |
| CCC1(c2ccc(F)cc2)NC(=O)N(CC(=O)N2CCc3ccccc32)C1=O (centres undefined) | inactive: 1.91% | – |
| CN(NC(=O)Nc1ccc(Cl)cc1)c1ncc(C(F)(F)F)cc1Cl | – | inconclusive: 29.1 µM [cytotoxic, single point] |
| O=C(NCC1CCCN(Cc2nccs2)C1)c1cccc2ccccc12 (centres undefined) | – | inconclusive: 29.1 µM [rising, single point] |
| C[C@H](CO)N1C[C@H](C)[C@@H](CN(C)S(=O)(=O)c2cn(C)cn2)Oc2ccc(NS(=O)(=O)c3ccccc3)cc2C1=O | – | inconclusive: 20.6 µM [rising, single point] |
| Cc1ccc(CSCCNC(=O)c2ccc(Cl)c(S(=O)(=O)N3CCOCC3)c2)cc1 | – | active: 20.6 µM |
| O=C(c1cccs1)N1CCN(c2ccccc2)CC1 | inactive: 9.59% | – |
| CC(C)COc1ccc(Nc2ncnc3ccc(Br)cc23)cc1 | inactive: 0.419% | – |
| CNS(=O)(=O)c1cn(CC(=O)N2CCN(c3ccc(C)cc3C)CC2)cc1S(=O)(=O)NC | inactive: 5.9% | – |
| C/C(=N/NC(=O)c1cc(-c2ccc(Cl)s2)[nH]n1)c1ccco1 | – | inconclusive: 20.6 µM [rising, single point] |
| COc1ccc([C@@H]2[C@@H]3C(=O)N(C(C)(C)C)C(=O)[C@@H]3[C@]3(Cc4ccccc4)C(=O)N(c4cccc(C)c4)C(=O)N23)cc1 | inconclusive: -16% | – |
| Cc1ccc(CSCc2nnc(SCC(=O)N3CCN(c4ccccc4)CC3)n2C)cc1 | – | inconclusive: 18.4 µM [cytotoxic, single point] |
| O=C(NC1CCCC1)C(c1ccncc1)N(C(=O)c1csnn1)C1CCCC1 (centres undefined) | inactive: 1.77% | – |
| OCCCNc1ncnc2oc(-c3ccccc3)c(-c3ccccc3)c12 | – | inconclusive: 29.1 µM [cytotoxic, single point] |

| SMILES | activity change, negative = cytotoxic | Potency |
| --- | --- | --- |
| O=C(CN(c1cccc(C(F)(F)F)c1)S(=O)(=O)c1ccc(Cl)c([N+](=O)[O-])c1)NCc1ccc(F)cc1 | – | inconclusive: 29.1 µM [cytotoxic, single point] |
| COc1ccc(-c2cc(C(F)(F)F)n3nc(N)nc3n2)cc1 | – | inconclusive: 18.4 µM [rising, partial curve] |
| COc1ccc(C(=O)c2c3ccc([N+](=O)[O-])cc3[n+]([O-])n2CCCC(N)=O)cc1 | – | inconclusive: 20.6 µM [cytotoxic, single point] |
| CN1CCN(C(=O)c2cnn(-c3ccccc3)c2NC(=O)c2cccs2)CC1 | – | inconclusive: 29.1 µM [cytotoxic, single point] |
| Cc1cccc2nc(CSC(=N)N)c(Br)n12 | – | inconclusive: 18.4 µM [cytotoxic, single point] |
| Nc1c(S(=O)(=O)c2cccs2)c2nc3ccccc3nc2n1/N=C/c1cccc(O)c1 | – | inconclusive: 18.4 µM [cytotoxic, single point] |
| O=C(Nc1cccc(Cl)c1Cl)c1cc2nc(-c3ccc4c(c3)OCO4)cc(C(F)(F)F)n2n1 | – | inconclusive: 23.1 µM [rising, partial curve] |
| COc1cc(-c2nc3n(n2)C(c2ccc(F)cc2)C(C(N)=O)=C(C)N3)cc(OC)c1OC (centres undefined) | inactive: -6.96% | – |
| CCn1c(Sc2ccc([N+](=O)[O-])cn2)nnc1-c1ccco1 | – | active: 20.6 µM |
| CN1C(=O)C(O)(C2CCCCCC2=O)c2ccccc21 (centres undefined) | inactive: -0.0458% | – |
| COC(=O)c1ccc2nc(NC(=O)CCS(=O)(=O)c3ccccc3)sc2c1 | inactive: -24.5% | – |
| COc1ccc(CNC(=O)CCCC(=O)Nc2cccc(Br)c2)cc1 | inactive: 9.09% | – |
| COc1ccc(CCN(C)Cc2ccc(OC)c(OCc3ccccc3)c2)cc1OC | – | inconclusive: 16.4 µM [cytotoxic, single point] |
| CC(=O)N1CC=C2C(C#N)=C(N)C(C#N)(C#N)C(C)C2C1 (centres undefined) | inactive: -0.177% | – |
| CCOc1cc(CNCc2cccs2)ccc1OCC(=O)NC(C)(C)C | – | inconclusive: 10.3 µM [cytotoxic, partial curve] |
| O=C1C2=C(Nc3ccccc3SC2c2ccc(Cl)c(Cl)c2)c2ccccc21 (centres undefined) | – | inconclusive: 29.1 µM [cytotoxic, single point] |
| COC(=O)Cc1c(C)c2cc3c(c(C)c2oc1=O)OCN(CCc1ccc(F)cc1)C3 | inactive: -2.93% | – |
| N#Cc1cc2c(nc1SCC(O)CS(=O)(=O)Cc1ccccc1)CCCC2 (centres undefined) | – | inconclusive: 0.0326 µM [cytotoxic, full curve] |
| CCN(CC)c1ccc(NC(=O)c2ccc3c(c2)OCO3)c(C)c1 | – | inconclusive: 23.1 µM [cytotoxic, single point] |
| O=C(NC1CCCCC1)C1CC(=O)N(c2ccccc2)C1 (centres undefined) | – | inconclusive: 29.1 µM [rising, partial curve, poor fit] |
| O=C(Nc1ccccc1Cl)C1CCN(Cc2cnn(-c3ccccc3)c2-n2cccc2)CC1 | – | active: 18.4 µM |
| COc1cccc(-c2nnc(NC(=O)c3ccc(Cl)s3)o2)c1 | – | inconclusive: 20.6 µM [cytotoxic, single point] |

Among those listed so far, these contain a furan ring, fused or not:

| SMILES | activity change, negative = cytotoxic | Potency |
| --- | --- | --- |
| COc1cc(NC(=O)c2ccc(Br)cc2)ccc1NC(=O)c1cc2ccccc2o1 | inconclusive: -15.2% | – |
| C/C(=N/NC(=O)c1cc(-c2ccc(Cl)s2)[nH]n1)c1ccco1 | – | inconclusive: 20.6 µM [rising, single point] |
| OCCCNc1ncnc2oc(-c3ccccc3)c(-c3ccccc3)c12 | – | inconclusive: 29.1 µM [cytotoxic, single point] |
| CCn1c(Sc2ccc([N+](=O)[O-])cn2)nnc1-c1ccco1 | – | active: 20.6 µM |
